Patent US7241873B2, “Recombinant anti-osteopontin antibody and use thereof” (Juridical Foundation the Chemo-sero-therapeutic Research …, priority 2001, dated 2007)
Results are given in words; binding and its absence hold for the method and conditions named. Some results given as binding are weak or reduced against the parent protein; the word gives no strength. No end group written: not given here. *: point of attachment. Biotin = O=C1N[C@H]2[C@H](CS[C@H]2CCCCC(=O)*)N1

Legend:
[1] = biological target: GST-N half (human) [GST: P08515]; assay: Western blotting
[2] = biological target: GST-OPN-b (human) [GST: P08515]; assay: Western blotting

B1: murine monoclonal antibody 2K1 (antibody, V domains shown)
VH: QVQLQQSGAELVRPGASVKLSCKALGYTFTDYEMHWVKQTPVHGLEWIGAIHPGRGGTAYNQKFKGKATLTADKSSSTAYMELSSLTSEDSAVYYCTRITGYFDVWGAGTTVTVSS
VL: DVLMTQTPLSLPVSLGDQASISCRSSQSIVHSNGNTYLEWYLQKPGQSPKLLIYKVSNRFSGVPDRFSGSGSGTDFTLKISRVEAEDLGVYYCFQGSHVPLTFGAGTKLELKR
notes: also called murine 2K1 antibody; murine antibody 2K1
binding [1]: binds
binding [2]: binds
